Measured values from PMC4893818, “Folliculin directs the formation of a Rab34–RILP complex to control the nutrient‐dependent dynamic distribution of lysosomes” (EMBO Reports, 2016).
These are yes or no findings as the source states them, for the method shown. For part of these data: In cells and extracts the contact can be indirect. Some results given as binding are weak or reduced against the parent protein; the word gives no strength. For part of these data: Where a sequence is shown, tags or fusion partners need not be part of it.

Sequences of proteins named here, by UniProt entry; tags and fusion partners are left off. Residues count along the entry.
UniProt Q6PHN9, residues 1-199: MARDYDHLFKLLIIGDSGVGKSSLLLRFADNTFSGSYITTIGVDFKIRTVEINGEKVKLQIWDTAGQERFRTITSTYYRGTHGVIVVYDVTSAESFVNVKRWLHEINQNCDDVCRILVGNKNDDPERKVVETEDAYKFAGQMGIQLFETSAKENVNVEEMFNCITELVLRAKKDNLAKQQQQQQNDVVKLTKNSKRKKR

How the values were obtained:
GFP-Rab34 (mouse) = biological target: T1, GFP-Rab34 (mouse) (UniProt Q64008); test: co-IP; GFP-Trap beads, lysate of HeLa cells transfected with GFP-Rab34 and HA-Rab7 with or without HA-RILP; 25 mM HEPES pH 7.5, 150 mM NaCl, 2 mM MgCl2, 0.5% NP-40, 0.5% Triton X-100; blots for GFP and HA
T1 sequence: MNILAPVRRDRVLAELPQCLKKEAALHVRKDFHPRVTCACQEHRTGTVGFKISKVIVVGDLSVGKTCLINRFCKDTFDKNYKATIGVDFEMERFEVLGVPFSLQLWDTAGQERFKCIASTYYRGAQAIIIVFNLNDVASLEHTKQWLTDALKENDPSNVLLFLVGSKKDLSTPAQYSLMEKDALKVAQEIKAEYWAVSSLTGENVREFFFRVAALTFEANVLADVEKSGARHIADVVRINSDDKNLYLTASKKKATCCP

GST-RILP (full ORF) [1] = biological target: T2, GST-RILP (full ORF) (human, UniProt Q96NA2 1-401); test: pull-down; larger scale: 0.5 nmol GST-RILP on glutathione beads, 2 x 15 cm dishes of HeLa lysed in 1 ml lysis buffer; Western blot; only the target purified
T2 construct: also called GST-RILP resin; source: E. coli BL21(DE3), purified (glutathione beads, eluted with glutathione, dialysed); not shown: GST, N-terminal, kept
T2 sequence (looked up): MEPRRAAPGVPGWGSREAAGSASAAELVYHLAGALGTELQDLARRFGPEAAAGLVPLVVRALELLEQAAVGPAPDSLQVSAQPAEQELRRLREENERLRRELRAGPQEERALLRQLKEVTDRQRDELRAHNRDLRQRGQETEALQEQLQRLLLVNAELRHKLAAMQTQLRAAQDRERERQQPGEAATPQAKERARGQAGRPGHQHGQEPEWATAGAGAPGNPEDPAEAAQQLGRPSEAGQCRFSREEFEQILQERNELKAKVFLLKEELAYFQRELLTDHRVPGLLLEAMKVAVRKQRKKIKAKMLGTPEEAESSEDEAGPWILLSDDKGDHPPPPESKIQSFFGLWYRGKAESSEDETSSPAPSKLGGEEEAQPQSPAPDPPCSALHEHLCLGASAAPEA

GST-RILP (full ORF) [2] = biological target: T2, GST-RILP (full ORF); test: pull-down; 0.1 nmol GST-RILP prebound to glutathione beads, extracts of UOK257, UOK257-2, UOK257-FLCN and UOK257-FLCNΔDENN cells; Western blot for endogenous Rab34 and Rab7; only the target purified
[3] = biological target: T3, Rab34-dsRED-Mito (WT) (mouse) (UniProt Q64008); test: recruitment to mitochondria by a mitochondrially targeted partner (confocal microscopy); HeLa cells co-transfected with Rab-dsRED-Mito and FLCN-GFP or its variants, with or without HA-FNIP2; fixed cells, confocal immunofluorescence
T3 sequence: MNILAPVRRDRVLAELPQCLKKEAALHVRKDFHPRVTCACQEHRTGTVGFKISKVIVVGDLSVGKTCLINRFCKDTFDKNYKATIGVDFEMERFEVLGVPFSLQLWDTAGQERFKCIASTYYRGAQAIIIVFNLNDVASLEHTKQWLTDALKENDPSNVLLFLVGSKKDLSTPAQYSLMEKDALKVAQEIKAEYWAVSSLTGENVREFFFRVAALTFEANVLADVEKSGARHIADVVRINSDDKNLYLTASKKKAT

Rab35-dsRED-Mito (mouse) = Rab35-dsRED-Mito (mouse) (UniProt Q6PHN9); test: as above
[4] = biological target: T4, Rab34 (Q111L)-dsRED-Mito (mouse) (UniProt Q64008); test: as above
T4 sequence: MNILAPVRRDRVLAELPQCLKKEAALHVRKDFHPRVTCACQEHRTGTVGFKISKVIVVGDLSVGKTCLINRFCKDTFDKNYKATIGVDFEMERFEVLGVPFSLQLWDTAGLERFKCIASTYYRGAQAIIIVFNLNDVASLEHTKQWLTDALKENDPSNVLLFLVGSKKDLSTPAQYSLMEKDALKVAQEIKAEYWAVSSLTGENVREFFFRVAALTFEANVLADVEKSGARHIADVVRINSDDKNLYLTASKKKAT

[5] = biological target: GST-RILP Rab binding domain (aa 241-321) (human) (UniProt Q96NA2); test: pull-down; GST-RILP fragments or GST alone on beads, extracts of UOK257-FLCN (full length) and UOK257-FLCNΔDENN cells; Western blot; only the target purified
[6] = biological target: GST-RILP C-terminal domain (322 to C) (human) (UniProt Q96NA2); test: as above
[7] = biological target: GST-RILP N-terminal coiled coil region (aa N-240) (human) (UniProt Q96NA2); test: as above

HA-RILP (from UniProt Q96NA2 1-401) was tested, and the binding (GFP-Rab34 (mouse)) was “binds”.

B1: endogenous Rab34 (natural protein, UniProt Q9BZG1 1-259, looked up)
chain: MNILAPVRRDRVLAELPQCLRKEAALHGHKDFHPRVTCACQEHRTGTVGFKISKVIVVGDLSVGKTCLINRFCKDTFDKNYKATIGVDFEMERFEVLGIPFSLQLWDTAGQERFKCIASTYYRGAQAIIIVFNLNDVASLEHTKQWLADALKENDPSSVLLFLVGSKKDLSTPAQYALMEKDALQVAQEMKAEYWAVSSLTGENVREFFFRVAALTFEANVLAELEKSGARRIGDVVRINSDDSNLYLTASKKKPTCCP
notes: Rab34 small GTPase, endogenous in human cell lines; source: endogenous, HeLa lysate; endogenous, lysates of UOK257, UOK257-2, UOK257-FLCN and UOK257-FLCNΔDENN cells
In the case of B1, the binding (GST-RILP (full ORF) [1]) is reported as “binds” and the binding (GST-RILP (full ORF) [2]) is reported as “binds”.

B2: FLCN-GFP (full-length mouse FLCN) (protein, UniProt Q8QZS3 1-579)
chain: MNAIVALCHFCELHGPRTLFCTEVLHAPLPQGAGSGDSPDQVEQAEEEEGGIQMSSRVRAHSPAEGASSESSSPGPKKSDMCEGCRSLAVGHPGYISHDKETSIKYVSHQHPNHPQLFSIVRQACVRSLSCEVCPGREGPIFFGDEQHGFVFSHTFFIKDSLARGFQRWYSIIAIMMDRIYLINSWPFLLGRIRGIISELQAKAFKVFEAEQFGCPQRAQRMNTAFTPFLHQRNGNAARSLTSLTSDDNLWACLHTSFAWLLKACGSRLTEKLLEGAPTEDTLVQMEKLADLEEESESWDNSEAEEEEKAPVTPEGAEGRELTSCPTESSFLSACGSWQPPKLTGFKSLRHMRQVLGAPSFRMLAWHVLMGNQVIWKSRDVNLVHSAFEVLRTMLPVGCVRIIPYSSQYEEAYRCNFLGLSPPVPIPAHVLASEFVVVVEVHTATRSNLHPAGCEDDQSLSKYEFVVTSGSPVAADRVGPTILNKIEAALTNQNLSVDVVDQCLICLKEEWMNKVKVLFKFTKVDSRPKEDTQKLLSVLGASEEDNVKLLKFWMTGLSKTYKSHLMSTVRSPTATESRS
B2 was tested, and the binding [3] was “binds”, the binding (Rab35-dsRED-Mito (mouse)) was “no binding” and the binding [4] was “binds”.

B3: FLCN(344-C)-GFP (DENN only) (domain or fragment, UniProt Q8QZS3 344-579)
chain: TGFKSLRHMRQVLGAPSFRMLAWHVLMGNQVIWKSRDVNLVHSAFEVLRTMLPVGCVRIIPYSSQYEEAYRCNFLGLSPPVPIPAHVLASEFVVVVEVHTATRSNLHPAGCEDDQSLSKYEFVVTSGSPVAADRVGPTILNKIEAALTNQNLSVDVVDQCLICLKEEWMNKVKVLFKFTKVDSRPKEDTQKLLSVLGASEEDNVKLLKFWMTGLSKTYKSHLMSTVRSPTATESRS
B3 was tested, and the binding [3] was “binds”.

B4: HA-FNIP2 (protein, UniProt Q9P278 1-1114)
chain: MAPTLLQKLFNKRGSSGSSAAASAQGRAPKEGPAFSWSCSEFDLNEIRLIVYQDCDRRGRQVLFDSKAVQKIEEVTAQKTEDVPIKISAKCCQGSSSVSSSSSSSISSHSSSGGSSHHAKEQLPKYQYTRPASDVNMLGEMMFGSVAMSYKGSTLKIHYIRSPPQLMISKVFSARMGSFCGSTNNLQDSFEYINQDPNLGKLNTNQNSLGPCRTGSNLAHSTPVDMPSRGQNEDRDSGIARSASLSSLLITPFPSPSSSTSSSSSYQRRWLRSQTTSLENGIIPRRSTDETFSLAEETCSSNPAMVRRKKIAISIIFSLCEKEEAQRNFQDFFFSHFPLFESHMNRLKSAIEKAMISCRKIAESSLRVQFYVSRLMEALGEFRGTIWNLYSVPRIAEPVWLTMMSGTLEKNQLCQRFLKEFTLLIEQINKNQFFAALLTAVLTYHLAWVPTVMPVDHPPIKAFSEKRTSQSVNMLAKTHPYNPLWAQLGDLYGAIGSPVRLTRTVVVGKQKDLVQRILYVLTYFLRCSELQENQLTWSGNHGEGDQVLNGSKIITALEKGEVEESEYVVITVRNEPALVPPILPPTAAERHNPWPTGFPECPEGTDSRDLGLKPDKEANRRPEQGSEACSAGCLGPASDASWKPQNAFCGDEKNKEAPQDGSSRLPSCEVLGAGMKMDQQAVCELLKVEMPTRLPDRSVAWPCPDRHLREKPSLEKVTFQIGSFASPESDFESRMKKMEERVKACGPSLEASEAADVAQDPQVSRSPFKPGFQENVCCPQNRLSEGDEGESDKGFAEDRGSRNDMAADIAGQLSHAADLGTASHGAGGTGGRRLEATRGLYVKAAEGPVLEPVAPRCVQRGPGLVAGANIPCGDDNKKANFRTEGDIPRNESSDSALGDSDDEACASAMLDLGHGGDRTGGSLEVELPLPRSQSISTQNVRNFGRSLLAGYCPTYMPDLVLHGTGSDEKLKQCLVADLVHTVHHPVLDEPIAEAVCIIADTDKWSVQVATSQRKVTDNMKLGQDVLVSSQVSSLLQSILQLYKLHLPADFCIMHLEDRLQEMYLKSKMLSEYLRGHTRVHVKELGVVLGIESNDLPLLTAIASTHSPYVAQILL
For B4, the binding [3] was “no binding”.

B5: FLCN(N-343)-GFP (ΔDENN) (domain or fragment, UniProt Q8QZS3 1-343)
chain: MNAIVALCHFCELHGPRTLFCTEVLHAPLPQGAGSGDSPDQVEQAEEEEGGIQMSSRVRAHSPAEGASSESSSPGPKKSDMCEGCRSLAVGHPGYISHDKETSIKYVSHQHPNHPQLFSIVRQACVRSLSCEVCPGREGPIFFGDEQHGFVFSHTFFIKDSLARGFQRWYSIIAIMMDRIYLINSWPFLLGRIRGIISELQAKAFKVFEAEQFGCPQRAQRMNTAFTPFLHQRNGNAARSLTSLTSDDNLWACLHTSFAWLLKACGSRLTEKLLEGAPTEDTLVQMEKLADLEEESESWDNSEAEEEEKAPVTPEGAEGRELTSCPTESSFLSACGSWQPPKL
For B5, the binding [3] was “no binding”.

B6: hsFLCNΔDENN (aa1-343), untagged (UOK257-FLCNΔDENN cells) (domain or fragment, UniProt Q8NFG4 1-343)
chain: MNAIVALCHFCELHGPRTLFCTEVLHAPLPQGDGNEDSPGQGEQAEEEEGGIQMNSRMRAHSPAEGASVESSSPGPKKSDMCEGCRSLAAGHPGYISHDKETSIKYVSHQHPSHPQLFSIVRQACVRSLSCEVCPGREGPIFFGDEQHGFVFSHTFFIKDSLARGFQRWYSIITIMMDRIYLINSWPFLLGKVRGIIDELQGKALKVFEAEQFGCPQRAQRMNTAFTPFLHQRNGNAARSLTSLTSDDNLWACLHTSFAWLLKACGSRLTEKLLEGAPTEDTLVQMEKLADLEEESESWDNSEAEEEEKAPVLPESTEGRELTQGPAESSSLSGCGSWQPRKL
B6 was tested, and the binding [5] was “no binding”, the binding [6] was “no binding” and the binding [7] was “no binding”.
